Experimental data: US11965006B2, “Antimicrobial and anti-cancer therapy” (UNIVERSITY OF PITTSBURGH—OF THE COMMONWEALTH SYSTEM OF …, priority 2016, dated 2024)
“Also recorded” adds a separate entry of the source. At least one peptide structure holds a part that was inferred or is arguable (an end, a ring closure or a residue). Ends that are not written are not given here.

Legend:
[1] = tested on: P. aeruginosa strain PAO1; experiment: P. aeruginosa bacteremia / septicemia model; format: in vivo, mice; conditions: for protection of bacteria infected mice: 4 mg/kg at 1 hour after infection
A2 line of RSV = experiment: RSV Plaque Assay in Hep2 cells; format: cell-based, Respiratory Syncytial Virus
[2] = tested on: HOP-062 (lung adenocarcinoma); experiment: Anti-cancer activity, tetrazolium-based viability assay; format: cell-based, human; conditions: 20 μM, treated 2 h

For “LKKWWKKVKGLLGGLLGKVTSVIK [SEQ ID No. 15]”, the “protection of bacteria infected mice” value ([1]; PAO1 2×10^7 CFU i.p., CD-1 mice) was 100%, the “protection of bacteria infected mice” value ([1]; PAO1 2×10^7 CFU i.v., Swiss Webster mice) was 100% and the “bacterial burden in multiple organs” value ([1]; 16 hours after 4 mpk i.v., PAO1 ~1×10^7 CFU i.p.) was “no bacteria detected”. The “efficacy against Pseudomonas aeruginosa-induced Septicemia” value ([1]; FIG. 31 legend) was “excellent efficacy”, the protection against bacteremia ([1]; IV injection of PAO1 ~3×10^7 CFU, 4 mg/kg) was “excellent protection against bacteremia” and the “reduction in viral plaques vs control” value (A2 line of RSV; 4 μM) was 1 log. For the same sequence, the viral plaque formation (A2 line of RSV; 4 μM) was “reduced the number of plaques; also recorded: fails to significantly reduce viral titers; also recorded: reduction in the number of plaques”, the “reduction in viral plaques vs control” value (A2 line of RSV; 16 μM) was about 3 log and the viral plaque formation (A2 line of RSV; 16 μM) was “extensively reduced plaque formation; also recorded: almost entirely eliminated viral plaques; also recorded: reduces viral plaque formation to a greater extent”. For the same sequence, the toxicity [2] was over 50%.
